Where a name gives a salt, the structure may show the parent alone. The list shows a part of the results. Repeats are few or missing, and single values can be far off.

This test has as its system A2780. The test is described as follows: cell growth inhibition ratio vs untreated control (CCK8); higher = stronger inhibition of cell viability. Particulars: 10 µM; 48 h. Here is the method:
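Natural product library (Topscience) screened at 10 µM final concentration for 48 h on ovarian cancer A2780 cells and patient-derived ovarian cancer cells (PDC) in 96-well plates; viability read by CCK8 and reported as inhibition ratio (%) relative to untreated control. Single-dose primary screen.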
Take `C[C@H]1[C@H](OC(=O)CCC(=O)O)O[C@@H]2O[C@@]3(C)CC[C@H]4[C@H](C)CC[C@@H]1[C@@]24OO3` [Artesunate]: the “cell growth inhibition ratio” value was 75.3%. As to `CC(C)=CCC[C@](C)(O[C@@H]1O[C@H](CO[C@@H]2O[C@@H](CO)[C@H](O)[C@H]2O)[C@@H](O)[C@H](O)[C@H]1O)[C@H]1CC[C@]2(C)[C@@H]1[C@H](O)C[C@@H]1[C@@]3(C)CC[C@H](O[C@@H]4O[C@H](CO)[C@@H](O)[C@H](O)[C@H]4O[C@@H]4O[C@H](CO)[C@@H](O)[C@H](O)[C@H]4O)C(C)(C)[C@@H]3CC[C@]12C` [Ginsenoside Rc], the “cell growth inhibition ratio” value came out at 1.83%. Turning to `COc1cc(/C=C/C(=O)O)ccc1O` [Ferulic Acid], the “cell growth inhibition ratio” value amounted to 8.44%. To `COc1cc(C2Oc3ccc(C4Oc5cc(O)cc(O)c5C(=O)C4O)cc3OC2CO)ccc1O` (stereo not given) [Isosilybin] belongs 13.3%; to `COc1cc(C[C@H]2C(=O)OC[C@@H]2Cc2ccc(OC)c(OC)c2)ccc1O` [Arctigenin], 44.6%; to `COc1cc2c(cc1OC)[C@@H]1Cc3ccc(OC)c(OC)c3CN1CC2` [Tetrahydropalmatine hydrochloride], 11.8%. To `CC(=O)c1ccc(O)cc1O` [2,4-Dihydroxyacetophenone] belongs 4.37%; to `COC(=O)C1=CO[C@@H](O)[C@@H]2C(CO)=CC[C@H]12` [Genipin], 4.39%. `CC[C@@]1(O)C(=O)OCc2c1cc1n(c2=O)Cc2cc3cc(O)ccc3nc2-1` [10-Hydroxycamptothecin]: the “cell growth inhibition ratio” value amounted to 86.6%. In the case of `C[C@@H]1C(=O)O[C@H]2C[C@@]34[C@H]5C[C@@H](C(C)(C)C)[C@]36[C@@H](OC(=O)[C@@H]6O)O[C@@]4(C(=O)O5)[C@]21O` [Ginkgolide A], the “cell growth inhibition ratio” value came out at 29.4%. Next, `C[C@@H]1O[C@@H](Oc2cc(O)c3c(=O)c(O[C@@H]4O[C@@H](C)[C@H](O)[C@@H](O)[C@H]4O)c(-c4ccc(O)cc4)oc3c2)[C@H](O)[C@H](O)[C@H]1O` [Kaempferitrin]: 26.4%; `Nc1nc(=O)c2c([nH]1)NC[C@H](CNc1ccc(C(=O)N[C@@H](CCC(=O)O)C(=O)O)cc1)N2C=O` [Calcium Levofolinate]: 5.93%. `OC[C@H]1O[C@H](OCC2O[C@@H](O)[C@H](O)[C@@H](O)[C@@H]2O)[C@H](O)[C@@H](O)[C@H]1O` (stereo not given in full) [Melibiose]: the “cell growth inhibition ratio” value was -1.08%.

Turning to `CC[C@H]1OC(=O)[C@H](C)[C@@H](O[C@H]2C[C@@](C)(OC)[C@@H](O)[C@H](C)O2)[C@H](C)[C@@H](O[C@@H]2O[C@H](C)C[C@H](N(C)C)[C@H]2O)[C@](C)(O)C[C@@H](C)CN(C)[C@H](C)[C@@H](O)[C@]1(C)O` [Azithromycin dihydrate], the “cell growth inhibition ratio” value amounted to 4.7%.

Take `CC(C)=CCC[C@](C)(O)[C@H]1CC[C@]2(C)[C@@H]1[C@H](O)C[C@@H]1[C@@]3(C)CC[C@H](O)C(C)(C)[C@@H]3[C@@H](O[C@@H]3O[C@H](CO)[C@@H](O)[C@H](O)[C@H]3O[C@@H]3O[C@@H](C)[C@H](O)[C@@H](O)[C@H]3O)C[C@]12C` [Ginsenoside Rg2]: the “cell growth inhibition ratio” value was -2.11%. As to `C[C@H]1[C@H](C)CC[C@]2(C(=O)O[C@@H]3O[C@H](CO[C@@H]4O[C@H](CO)[C@@H](O[C@@H]5O[C@H](C)[C@H](O)[C@@H](O)[C@H]5O)[C@H](O)[C@H]4O)[C@@H](O)[C@H](O)[C@H]3O)CC[C@]3(C)C(=CC[C@@H]4[C@@]5(C)C[C@@H](O)[C@H](O)[C@@](C)(CO)[C@@H]5CC[C@]43C)[C@H]12` [Asiaticoside], the “cell growth inhibition ratio” value was -7.4%. To `N[C@H]1C(O)O[C@H](CO)[C@@H](O)[C@@H]1O` (stereo not given in full) [Glucosamine] belongs 8.69%; to `C[C@@H]1CC[C@@]2(OC1)O[C@H]1C[C@H]3[C@@H]4CC=C5C[C@@H](O)CC[C@]5(C)[C@H]4CC[C@]3(C)[C@H]1[C@@H]2C` [Diosgenin], 11.8%; to `O=Cc1ccc(O)c(O)c1` [Protocatechualdehyde], 16.4%. Turning to `CC(C)=CCC[C@](C)(O[C@@H]1O[C@H](CO)[C@@H](O)[C@H](O)[C@H]1O)[C@H]1CC[C@]2(C)[C@@H]1[C@H](O)C[C@@H]1[C@@]3(C)CC[C@H](O[C@@H]4O[C@H](CO)[C@@H](O)[C@H](O)[C@H]4O)C(C)(C)[C@@H]3CC[C@]12C` [Ginsenoside F2], the “cell growth inhibition ratio” value was determined as 12.6%. Turning to `O=c1c2cc(O[C@@H]3O[C@H](CO)[C@@H](O)[C@H](O)[C@H]3O)c(O)cc2oc2cc(O)c([C@@H]3O[C@H](CO)[C@@H](O)[C@H](O)[C@H]3O)c(O)c12` [Neomangiferin], the “cell growth inhibition ratio” value was found to be 16.4%.

In the case of `O=C(O[C@@H]1Cc2c(O)cc(O)cc2O[C@H]1c1cc(O)c(O)c(O)c1)c1cc(O)c(O)c(O)c1` [(-)-Gallocatechin gallate], the “cell growth inhibition ratio” value came out at 10.8%. On to `O=c1oc2ccccc2c(O)c1Cc1c(O)c2ccccc2oc1=O` [Dicumarol], for which the “cell growth inhibition ratio” value amounted to 35.3%. For `NCCCNCCCCNCCCN` [Spermine], the “cell growth inhibition ratio” value is -6.03%. Next, `CC(C)=C[C@H]1C[C@](C)(O)[C@@H]2[C@H]3CC[C@@H]4[C@@]5(C)CC[C@H](OC6OC[C@H](O)[C@H](O[C@@H]7O[C@H](CO[C@@H]8O[C@H](CO)[C@@H](O)[C@H](O)[C@H]8O)[C@@H](O)[C@H](O)[C@H]7O[C@@H]7OC[C@@H](O)[C@H](O)[C@H]7O)[C@H]6O[C@@H]6O[C@@H](C)[C@H](O)[C@@H](O)[C@H]6O)C(C)(C)[C@@H]5CC[C@@]4(C)C34CO[C@@]2(C4)O1` (stereo not given in full) [Jujuboside A]: 2.72%. To `C[C@H](CCC(=O)NCCS(=O)(=O)O)[C@H]1CC[C@H]2[C@@H]3[C@@H](O)C[C@@H]4C[C@H](O)CC[C@]4(C)[C@H]3CC[C@]12C` [Tauroursodeoxycholic Acid] belongs -4.4%. Turning to `C[N+](C)(C)CC(=O)O` [Betaine hydrochloride], the “cell growth inhibition ratio” value is 18.9%. To `NC[C@H]1O[C@H](O[C@H]2[C@H](O)[C@@H](O[C@H]3O[C@H](CO)[C@@H](O)[C@H](N)[C@H]3O)[C@H](N)C[C@@H]2N)[C@H](O)[C@@H](O)[C@@H]1O` [Kanamycin sulfate] belongs -0.186%.

Take `COc1ccc2[nH]cc(CCNC(C)=O)c2c1` [Melatonine]: the “cell growth inhibition ratio” value amounted to 2.34%. Regarding `CO[C@H]1O[C@@H]2O[C@@]3(C)CC[C@H]4[C@H](C)CC[C@@H]([C@H]1C)[C@@]24OO3` [Artemether], the “cell growth inhibition ratio” value is -24.8%. Consider `CC(C)[C@H](NC(=O)[C@H](CC(=O)O)NC(=O)[C@H](CCCCN)NC(=O)[C@@H](N)CCCN=C(N)N)C(=O)N[C@@H](Cc1ccc(O)cc1)C(=O)O` [Thymopentin], for which the “cell growth inhibition ratio” value is -2.25%.

Take `COc1c2c(cc3oc(CO[C@@H]4O[C@H](CO)[C@@H](O)[C@H](O)[C@H]4O)cc(=O)c13)O[C@H](C(C)(C)O)C2`: the “cell growth inhibition ratio” value stood at 2.47%. To `O=C(O)CCc1ccc(O)cc1` [Phloretic acid] belongs -0.47%; to `CC(C)=CCC[C@](C)(O[C@@H]1O[C@H](CO)[C@@H](O)[C@H](O)[C@H]1O)[C@H]1CC[C@]2(C)[C@@H]1[C@H](O)C[C@@H]1[C@@]3(C)CC[C@H](O)C(C)(C)[C@@H]3[C@@H](O[C@@H]3O[C@H](CO)[C@@H](O)[C@H](O)[C@H]3O)C[C@]12C` [Ginsenoside Rg1], -0.713%; to `NCCCC(=O)O` [4-Aminobutyric acid], -9.54%.

Source of the values: the supplement of paper PMC10373366.
